Test results from publication doi:10.1101/259481.
Results are given in words; binding and its absence hold for the method and conditions named. Some entries that bind do so weakly or less than the wild type.

Chains of the proteins cited; added tags and fusions are not shown. Lines headed by an entry give the natural chain unless they say otherwise; changes in a name come on top. Residues count along the entry.
laminin alpha 4 LG domain recombinant protein (Q16363, residues 826-1816): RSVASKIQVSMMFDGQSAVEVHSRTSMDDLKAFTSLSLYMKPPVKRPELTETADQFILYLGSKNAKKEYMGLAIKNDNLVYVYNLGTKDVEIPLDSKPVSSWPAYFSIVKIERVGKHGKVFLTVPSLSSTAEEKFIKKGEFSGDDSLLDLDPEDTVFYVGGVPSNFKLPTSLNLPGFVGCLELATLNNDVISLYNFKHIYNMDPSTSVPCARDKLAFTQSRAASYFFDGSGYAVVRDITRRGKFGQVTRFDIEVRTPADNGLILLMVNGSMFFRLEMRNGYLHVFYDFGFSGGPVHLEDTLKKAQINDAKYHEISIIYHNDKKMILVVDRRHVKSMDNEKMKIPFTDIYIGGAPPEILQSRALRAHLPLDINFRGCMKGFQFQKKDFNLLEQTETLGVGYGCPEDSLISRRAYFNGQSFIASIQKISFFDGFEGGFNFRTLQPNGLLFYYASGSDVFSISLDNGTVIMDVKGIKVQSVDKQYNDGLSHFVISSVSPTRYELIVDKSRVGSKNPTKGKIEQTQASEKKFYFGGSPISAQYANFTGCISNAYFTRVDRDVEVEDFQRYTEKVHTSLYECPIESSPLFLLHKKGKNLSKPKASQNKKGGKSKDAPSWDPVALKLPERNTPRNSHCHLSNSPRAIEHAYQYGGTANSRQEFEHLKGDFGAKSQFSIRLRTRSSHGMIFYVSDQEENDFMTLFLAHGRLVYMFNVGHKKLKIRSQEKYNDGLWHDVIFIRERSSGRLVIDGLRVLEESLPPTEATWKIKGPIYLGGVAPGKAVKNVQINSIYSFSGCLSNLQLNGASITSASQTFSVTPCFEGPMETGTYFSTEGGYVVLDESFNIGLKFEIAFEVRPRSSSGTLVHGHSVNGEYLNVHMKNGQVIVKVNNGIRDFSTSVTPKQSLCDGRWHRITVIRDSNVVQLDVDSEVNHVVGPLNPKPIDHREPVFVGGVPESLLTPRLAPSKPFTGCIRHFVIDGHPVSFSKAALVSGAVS
laminin-derived peptide α4_(1408-1434) (Q16363, residues 1408-1434): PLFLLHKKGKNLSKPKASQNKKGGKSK
laminin-derived peptide α4_(1521-1543) (Q16363, residues 1521-1543): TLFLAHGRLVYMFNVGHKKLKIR
UniProt P24043: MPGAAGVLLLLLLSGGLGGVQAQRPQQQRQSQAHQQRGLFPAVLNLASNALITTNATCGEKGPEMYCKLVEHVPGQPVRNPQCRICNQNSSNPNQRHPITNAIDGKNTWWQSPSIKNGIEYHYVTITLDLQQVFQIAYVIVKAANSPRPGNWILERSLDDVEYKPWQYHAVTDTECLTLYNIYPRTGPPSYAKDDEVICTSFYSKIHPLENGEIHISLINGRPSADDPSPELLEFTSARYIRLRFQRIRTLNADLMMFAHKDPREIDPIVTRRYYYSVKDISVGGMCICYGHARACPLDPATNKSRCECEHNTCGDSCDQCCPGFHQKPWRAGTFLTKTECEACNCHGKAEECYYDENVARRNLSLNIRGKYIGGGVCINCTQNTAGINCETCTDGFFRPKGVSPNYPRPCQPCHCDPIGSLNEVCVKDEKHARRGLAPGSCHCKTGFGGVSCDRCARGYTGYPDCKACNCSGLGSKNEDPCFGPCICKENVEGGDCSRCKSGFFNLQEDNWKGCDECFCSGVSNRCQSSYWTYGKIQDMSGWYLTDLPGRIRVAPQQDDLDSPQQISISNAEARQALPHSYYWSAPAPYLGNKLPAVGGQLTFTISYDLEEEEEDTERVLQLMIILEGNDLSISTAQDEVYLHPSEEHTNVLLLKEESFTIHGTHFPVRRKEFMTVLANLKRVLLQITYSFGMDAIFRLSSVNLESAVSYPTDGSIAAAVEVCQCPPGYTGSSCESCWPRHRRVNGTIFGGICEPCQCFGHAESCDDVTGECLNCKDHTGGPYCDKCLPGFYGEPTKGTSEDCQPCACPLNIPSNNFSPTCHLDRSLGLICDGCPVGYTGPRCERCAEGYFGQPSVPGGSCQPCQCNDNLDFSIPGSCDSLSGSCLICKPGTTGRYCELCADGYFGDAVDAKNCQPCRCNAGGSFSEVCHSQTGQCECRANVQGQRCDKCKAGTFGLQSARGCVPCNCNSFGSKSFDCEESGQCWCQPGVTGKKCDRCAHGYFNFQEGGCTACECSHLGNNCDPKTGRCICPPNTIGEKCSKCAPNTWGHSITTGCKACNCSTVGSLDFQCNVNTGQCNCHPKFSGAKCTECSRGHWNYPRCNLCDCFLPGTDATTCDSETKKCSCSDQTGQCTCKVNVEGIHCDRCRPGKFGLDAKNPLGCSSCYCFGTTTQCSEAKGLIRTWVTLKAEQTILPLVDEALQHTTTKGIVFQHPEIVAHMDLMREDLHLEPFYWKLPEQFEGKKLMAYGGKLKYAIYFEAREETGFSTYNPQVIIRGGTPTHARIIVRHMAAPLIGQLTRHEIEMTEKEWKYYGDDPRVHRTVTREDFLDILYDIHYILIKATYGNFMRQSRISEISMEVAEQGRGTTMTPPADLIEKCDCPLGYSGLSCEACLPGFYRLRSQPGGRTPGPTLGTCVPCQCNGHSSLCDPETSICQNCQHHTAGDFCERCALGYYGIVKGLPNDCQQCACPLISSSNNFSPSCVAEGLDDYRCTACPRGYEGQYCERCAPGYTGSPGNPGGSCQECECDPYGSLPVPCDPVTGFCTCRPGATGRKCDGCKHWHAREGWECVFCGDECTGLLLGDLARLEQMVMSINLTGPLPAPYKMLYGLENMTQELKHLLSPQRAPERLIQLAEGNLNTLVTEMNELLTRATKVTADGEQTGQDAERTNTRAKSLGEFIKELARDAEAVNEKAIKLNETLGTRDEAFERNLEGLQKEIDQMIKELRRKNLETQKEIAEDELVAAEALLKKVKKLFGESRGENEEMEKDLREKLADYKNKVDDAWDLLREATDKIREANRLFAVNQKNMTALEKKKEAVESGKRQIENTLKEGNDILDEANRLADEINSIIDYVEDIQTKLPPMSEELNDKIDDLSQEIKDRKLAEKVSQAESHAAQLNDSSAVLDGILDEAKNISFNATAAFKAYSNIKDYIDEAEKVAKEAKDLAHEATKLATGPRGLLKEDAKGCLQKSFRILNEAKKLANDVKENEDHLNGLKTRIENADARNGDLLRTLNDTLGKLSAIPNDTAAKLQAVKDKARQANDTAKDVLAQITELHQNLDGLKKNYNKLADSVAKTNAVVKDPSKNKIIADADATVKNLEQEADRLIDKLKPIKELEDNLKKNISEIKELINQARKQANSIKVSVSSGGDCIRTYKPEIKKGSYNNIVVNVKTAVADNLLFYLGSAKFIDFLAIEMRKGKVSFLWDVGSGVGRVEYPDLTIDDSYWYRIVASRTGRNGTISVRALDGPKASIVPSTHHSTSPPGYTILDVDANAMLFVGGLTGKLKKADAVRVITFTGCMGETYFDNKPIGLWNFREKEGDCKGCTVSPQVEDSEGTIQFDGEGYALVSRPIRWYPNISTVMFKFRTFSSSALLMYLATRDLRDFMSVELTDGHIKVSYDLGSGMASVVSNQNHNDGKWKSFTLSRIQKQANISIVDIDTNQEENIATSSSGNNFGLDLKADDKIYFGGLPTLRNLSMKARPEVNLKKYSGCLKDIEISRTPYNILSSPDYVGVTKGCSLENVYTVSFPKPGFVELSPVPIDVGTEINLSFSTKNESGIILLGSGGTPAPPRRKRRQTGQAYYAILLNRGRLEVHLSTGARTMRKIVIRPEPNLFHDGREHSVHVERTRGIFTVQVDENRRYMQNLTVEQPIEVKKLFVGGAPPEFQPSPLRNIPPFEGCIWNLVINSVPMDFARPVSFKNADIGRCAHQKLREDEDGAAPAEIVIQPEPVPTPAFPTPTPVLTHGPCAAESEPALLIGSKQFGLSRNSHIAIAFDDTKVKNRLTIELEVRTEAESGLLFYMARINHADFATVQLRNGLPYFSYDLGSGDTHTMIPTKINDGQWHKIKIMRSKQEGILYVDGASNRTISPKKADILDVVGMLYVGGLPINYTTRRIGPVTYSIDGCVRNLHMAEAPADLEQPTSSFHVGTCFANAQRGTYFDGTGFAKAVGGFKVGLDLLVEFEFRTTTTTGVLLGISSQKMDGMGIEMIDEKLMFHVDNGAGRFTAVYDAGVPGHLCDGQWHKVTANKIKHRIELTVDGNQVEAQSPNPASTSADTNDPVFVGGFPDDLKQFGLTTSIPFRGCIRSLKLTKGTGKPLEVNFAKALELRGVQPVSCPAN
UniProt P01127, residues 82-190: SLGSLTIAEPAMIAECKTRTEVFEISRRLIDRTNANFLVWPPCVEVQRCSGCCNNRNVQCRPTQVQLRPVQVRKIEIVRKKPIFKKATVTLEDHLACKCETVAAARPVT
UniProt P34741, residues 19-144: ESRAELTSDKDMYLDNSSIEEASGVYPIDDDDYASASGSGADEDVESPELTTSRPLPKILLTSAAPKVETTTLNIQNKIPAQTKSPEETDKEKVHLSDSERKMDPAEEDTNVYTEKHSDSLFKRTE
UniProt P09038, residues 143-288: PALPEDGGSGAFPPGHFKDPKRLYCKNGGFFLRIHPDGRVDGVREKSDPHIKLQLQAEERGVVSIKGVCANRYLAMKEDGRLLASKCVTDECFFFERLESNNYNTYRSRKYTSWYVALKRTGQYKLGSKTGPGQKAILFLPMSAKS

Legend:
Assay in all cases: ELISA
[1] = molecular target: laminin-derived peptide α4_(1408-1434) (human) (UniProt Q16363)
[2] = molecular target: laminin alpha 4 LG domain recombinant protein (human) (UniProt Q16363)
[3] = molecular target: T1, laminin-derived peptide α5_(3312-3325) (human) (UniProt O15230)
T1 sequence (peptide): ARKASRRSRQPARH

[4] = molecular target: T2, laminin-derived peptide α3_(3031-3043) (human) (UniProt Q16787)
T2 sequence (peptide): KNSFMALYLSKGR

[5] = molecular target: T3, laminin-derived peptide α5_(3539-3550) (human) (UniProt O15230)
T3 sequence (peptide): TLPDVGLELEVR

[6] = molecular target: T4, laminin-derived peptide α3_(2932-2951) (human) (UniProt Q16787)
T4 sequence (peptide): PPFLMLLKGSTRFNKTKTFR

[7] = molecular target: laminin-derived peptide α4_(1521-1543) (human) (UniProt Q16363)
laminin-221 = laminin-221 (UniProt P24043)

Row | Substance | binding [1] | binding [2] | binding [3] | binding [4] | binding [5] | binding [6] | binding [7] | binding (laminin-221)
1 | platelet-derived growth factor (PDGF)-BB (from UniProt P01127 82-190) (ligand) | binds | binds | no binding (tested: 1 μg/mL) | – | – | – | – | –
2 | recombinant human syndecan-2 (from UniProt P34741 19-144) (receptor) | binds | – | binds weakly | binds weakly | no binding (tested: 1 μg/mL) | binds weakly | binds | –
3 | fibroblast growth factor (FGF)-2 (from UniProt P09038 143-288) (ligand) | binds | binds | no binding (tested: 1 μg/mL) | – | – | – | binds | binds
